Data taken from the supplement of paper PMC3334620.
Over roughly 33,000 sequences, “E-score (-0.5 to 0.5)” has its median near -8e-05; the highest 2% begin near 0.23. This is one part of the list.

biological target: T1, Nrg2 (UniProt P38082); test: PBM E-score (8-mer binding enrichment) (E-score (-0.5 to 0.5)); higher = stronger / more preferred TF binding; details: protein concentration: 100 nM; construct: GST-full length
T1 sequence: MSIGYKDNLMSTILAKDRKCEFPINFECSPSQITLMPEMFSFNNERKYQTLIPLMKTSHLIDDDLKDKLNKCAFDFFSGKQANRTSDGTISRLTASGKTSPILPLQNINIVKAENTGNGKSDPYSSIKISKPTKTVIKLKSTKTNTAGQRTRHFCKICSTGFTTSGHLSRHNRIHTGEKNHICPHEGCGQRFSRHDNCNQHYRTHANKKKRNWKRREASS
Protocol: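 Universal 'all 10-mer' protein binding microarrays (Agilent AMADID 015681) probed with GST-tagged S. cerevisiae TFs (full-length or DBD) made by in vitro transcription/translation (PURExpress), about 100-200 nM. Bound TF was detected with fluorescent anti-GST. Each ungapped 8-mer (which stands for itself and its reverse complement) is scored by the PBM enrichment score (E-score), a modified Wilcoxon-Mann-Whitney statistic from -0.5 to +0.5, computed with the Universal PBM Analysis Suite. Scale: above 0.35 generally sequence-specific binding.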

Row | Sequence | PBM E-score
1 | GCCTAAAA | -0.167
2 | ATCGAAAC | 0.165
3 | GTACCAAC | -0.00125
4 | ACGCTGAC | 0.0741
5 | AATTGAAT | 0.05
6 | CCACCACC | -0.0598
7 | ATCCGCGG | 0.206
8 | CGTGCACG | 0.0265
9 | GTGACCCA | -0.169
10 | CTACCACC | -0.166
11 | ATAATAGA | 0.0769
12 | GATGTTTA | 0.093
13 | CGACCACC | -0.0562
14 | ATACACGA | 0.00107
15 | AAGGTCCT | -0.216
16 | AGACAGGC | -0.00114
17 | CATACATA | 0.219
18 | AATCGAGT | 0.0016
19 | CGATACCC | -0.0215
20 | AATAACGA | 0.139
21 | AGTGTTCG | 0.0585
22 | TCATAACA | 0.0772
23 | CCTTACGA | -0.115
24 | ATCTCTAA | -0.0422
25 | AGAACCCG | 0.0292

Random excerpt: five records from the list
Row | Sequence | PBM E-score
8 | CGTGCACG | 0.0265
2 | ATCGAAAC | 0.165
4 | ACGCTGAC | 0.0741
23 | CCTTACGA | -0.115
21 | AGTGTTCG | 0.0585

An excerpt of these results, with each value named:
CCACCACC
  PBM E-score: -0.0598
AATCGAGT
  PBM E-score: 0.0016

Later entries.

Row | Sequence | PBM E-score
26 | TAAAATTA | 0.126
27 | ATTTATCC | 0.247
28 | CACATAGA | -0.0246
29 | CACTCTCA | -0.0203
30 | GAAATTAA | 0.139
31 | GGCGTGGA | -0.104
32 | ACAGATCA | 0.216
33 | CTCCGTTC | -0.0759
34 | TAGCATCA | 0.17
35 | TCCCAAAA | 0.0584
36 | GCATCAGC | 0.00525
37 | AATCTAGC | -0.0305
38 | CACAGACC | 0.16
39 | CAAGCAGG | -0.126
40 | AATCTGAA | 0.105
41 | ACGGCCAA | 0.0172
42 | AGCAACTC | -0.0833
43 | CGTCTCGC | -0.0539
44 | ATCAGACC | 0.0464
45 | GGAAGTCC | -0.0592
46 | GATGTAGC | -0.148
47 | AATGAGCT | 0.127
48 | ATCGCAAC | 0.112
49 | AATATGCA | -0.0794
50 | ACCTCTTA | 0.198

Row | Sequence | PBM E-score
51 | AAAGGCTC | -0.211
52 | TCTCACAA | 0.191
53 | CTGATTCA | 0.0208
54 | GACTATCA | -0.127
55 | ATCAAAAC | 0.0363
56 | CGTCGATA | 0.118
57 | CAGTTGGA | -0.00944
58 | CCCTGATA | 0.125
59 | GAAGAGTC | -0.155
60 | ACGGATGG | -0.128
61 | CATTGCCC | -0.0366
62 | ATGTTAAA | 0.0474
63 | AGTAATCC | -0.0271
64 | AGGGCGAG | -0.151
65 | GCCTCATA | -0.0227
66 | ACGAGGGC | 0.0428
67 | ACTGGTCG | -0.174
68 | GACAGCAA | -0.0262
69 | CGGTAAAG | -0.0886
70 | GATCGCAC | 0.0251
71 | ACTCAAGC | -0.148
72 | ACGATCTA | -0.176
73 | CTGGACCC | 0.275
74 | CATCCCGC | -0.0113
75 | ACTCGCCG | 0.0986

Row | Sequence | PBM E-score
76 | CAGACTCA | -0.0953
77 | GTACACCA | -0.00684
78 | AGCCGCGA | -0.0535
79 | ATACGAGG | -0.0634
80 | CGTCGCGC | 0.0918
81 | GGACGATA | 0.0462
82 | AAACTAGT | 0.109
83 | GATTCCGA | 0.0277
84 | CGCTCTTC | -0.203
85 | AAAGATTA | 0.128
86 | ATGAGCGC | 0.179
87 | GGACAGAA | 0.0661
88 | CCTAACAG | 0.0427
89 | TCGCCTAA | -0.0482
90 | GCTTATTA | 0.132
91 | CATGGCTA | -0.107
92 | ACGTTATG | 0.0787
93 | AGCTCATC | -0.0832
94 | AACTCGAA | 0.0774
95 | CGCAGTAC | -0.0277
96 | GACGGGCA | -0.0837
97 | CTTGCTGC | -0.122
98 | CGTTCAAC | 0.0486
99 | GATGCAAC | -0.0557
100 | TTAAGGAA | -0.0576

Row | Sequence | PBM E-score
101 | ACCGTGAG | -0.216
102 | CTAGATCA | 0.0617
103 | AGGAAAGG | -0.33
104 | ACACGAAG | 0.188
105 | AAATGTTC | 0.0373
106 | AACCCATG | 0.0755
107 | ATTCCGCA | -0.00048
108 | CTTTGAGA | 0.0555
109 | CGTTACGC | -0.189
110 | TGCCACAA | 0.0785
111 | CAACATTC | -0.0926
112 | CCCCCTTC | -0.392
113 | CTAAAAGC | -0.194
114 | CCCGAACG | -0.0859
115 | CAAAATGG | 0.119
116 | AGCGCTTC | 0.134
117 | ACCCGGGT | 0.0835
118 | CACTTGGG | -0.0672
119 | TAACGGAA | 0.116
120 | ACGGGACC | -0.121
121 | CTCGAGGA | 0.173
122 | ACATGGTG | -0.00195
123 | AAGAGCAT | -0.0179
124 | AGTATCAG | 0.03
125 | ATGGCAAG | 0.134

Row | Sequence | PBM E-score
126 | CTGATCCC | 0.0429
127 | CTACATAG | 0.0424
128 | CCCCTCGG | -0.145
129 | AGATGGCT | -0.0627
130 | AAGCTCAC | -0.0624
131 | ATTCATTG | 0.00754
132 | GCTTGCGA | 0.0105
133 | ACCACGAC | 0.0976
134 | GCCAATAC | 0.0323
135 | AATCAGGA | -0.0237
136 | AGCTGCCC | 0.137
137 | AGCGTAGA | -0.187
138 | ATAAGTGA | 0.0209
139 | ACAACGGA | 0.242
140 | ATCACATG | -0.0178
141 | GACCCGCC | 0.0656
142 | AAATGCAG | 0.112
143 | AGTTTGCA | -0.0668
144 | GCGCCATA | 0.103
145 | TCTTGCCA | -0.0174
146 | TCAGGGAA | 0.0408
147 | AATGGGTC | -0.0592
148 | CACAGATC | 0.0563
149 | CGTCGTAA | -0.169
150 | CCGATCCC | -0.2

Row | Sequence | PBM E-score
151 | GGCACGAC | -0.0374
152 | AAGATTGG | -0.0354
153 | AAATTCTG | 0.0434
154 | ACCTAGTG | 0.145
155 | CAACTTCC | 0.0253
156 | CACAGCTC | -0.022
157 | AGAGACTA | -0.14
158 | ACCTGTTC | 0.0117
159 | AAAGACAA | 0.194
160 | AACGGTTC | -0.188
161 | CACAGTGA | 0.0466
162 | CATGTGGG | 0.0198
163 | GTCAGTTA | -0.0619
164 | AGCACAAT | 0.129
165 | ACACCATC | 0.0972
166 | GTAATAAA | 0.15
167 | CCGGCAAA | 0.0621
168 | GCACGTTA | -0.0204
169 | ATCTACTG | 0.145
170 | ACCGACGT | 0.112
171 | ACTTGCTC | -0.0835
172 | CATTCACA | 0.107

Single entries from the entries so far.
Under PBM E-score, ACACCATC is entered as 0.0972
Under PBM E-score, ACCGACGT is entered as 0.112
